From PubChem BioAssay AID1259354 (Paczesny and Yang Labs, IUPUI and University of Michigan, 2018)
About 1,800 (2.3%) of roughly 78,000 compounds were called active. The inconclusive results got no clear call from the source; some entries with a clear call stand among them for comparison. Cut-off read from the data, not from the text of the source: active = inhibition above about 30%; inconclusive = mostly about 10% to 28%; inactive = weaker than that.

Sequences of proteins named here, by UniProt entry; tags and fusion partners are left off. A change or cut given only in a name is not applied to a line headed by its entry.
UniProt Q01638: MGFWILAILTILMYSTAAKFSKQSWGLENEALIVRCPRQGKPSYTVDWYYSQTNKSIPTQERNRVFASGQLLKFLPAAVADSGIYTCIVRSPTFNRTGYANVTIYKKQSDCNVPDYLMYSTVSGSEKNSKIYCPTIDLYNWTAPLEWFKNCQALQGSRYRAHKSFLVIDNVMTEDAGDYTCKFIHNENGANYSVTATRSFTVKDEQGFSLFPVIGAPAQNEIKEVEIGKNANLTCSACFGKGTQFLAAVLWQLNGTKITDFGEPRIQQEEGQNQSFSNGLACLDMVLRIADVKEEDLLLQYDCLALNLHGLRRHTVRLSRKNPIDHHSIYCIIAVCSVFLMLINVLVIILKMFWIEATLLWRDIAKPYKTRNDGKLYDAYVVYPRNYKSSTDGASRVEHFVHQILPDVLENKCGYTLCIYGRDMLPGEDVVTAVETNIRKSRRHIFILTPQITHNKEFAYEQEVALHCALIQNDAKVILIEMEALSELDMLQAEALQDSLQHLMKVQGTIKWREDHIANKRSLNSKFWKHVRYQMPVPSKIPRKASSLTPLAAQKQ

target: Interleukin-1 receptor-like 1 (Homo sapiens) (UniProt Q01638); assay: blocks human ST2 binding to IL-33, primary screen, biochemical, AlphaLISA (AID 1259354); conditions: AlphaLISA ST2-Fc/biotin-IL-33 interaction, 1 h; at 17 µM, stronger effect = higher value

Row | Compound | inhibition
1 | COc1cccc2c1OCC(C(=O)NCCSc1nnnn1C)C2 (stereo unspecified) | inconclusive: 10%
2 | CN1CCC(N2CC[C@@H]3[C@H]2C(=O)NC[C@H](CCC(=O)N2CCC(O)CC2)N3C)CC1 | inactive
3 | O=C(NC1CCCCC1)C1CCN(S(=O)(=O)N2CCCC2)CC1 | inactive
4 | COCC(=O)N1CCCN(Cc2cc3c(cc2OC)OCCCO3)CC1 | inactive
5 | COc1ccc(Cl)cc1-n1c(CCC(=O)O)ccc1-c1cccs1 | inactive
6 | CCc1ncc(CN2CCC(C(=O)Nc3cccc(-c4cccc(F)c4)c3)CC2)cn1 | inactive
7 | O[C@@H]1CN(C2CCN(c3cccc(Cl)c3)CC2)CC[C@H]1N1CCCCCC1 | inconclusive: 24%
8 | Cc1ccc(C)c(NC(=O)CSc2nc3c(c(=O)n2-c2ccccc2)SCC3)c1 | inconclusive: 11%
9 | Clc1ccc(CN2CCSCC2)cc1Cl | inconclusive: 13%
10 | N#Cc1c(N)n(-c2ccccc2)c2nc3ccccc3nc12 | inconclusive: 16%
11 | CN(Cc1ncccc1C(=O)O)Cc1noc2c1CCCC2 | inconclusive: 13%
12 | CCOc1ccc(CC(=O)Nc2cccc(N3CCCS3(=O)=O)c2)cc1 | inconclusive: 12%
13 | Cc1nnc(NC(=O)c2ccc(C(C)(C)C)cc2)s1 | inactive
14 | CCC(C)NC(=O)CN1C(=O)/C(=C\c2ccc(Cl)cc2)Sc2ccccc21 (stereo unspecified) | inconclusive: 17%
15 | Cc1ccc(Cn2c(CCNC(=O)Nc3cc(C)cc(C)c3)nc3cccnc32)cc1 | inactive
16 | CC(Oc1ccccc1)C(=O)N(c1ccc(F)cc1)C1C=CS(=O)(=O)C1 (stereo unspecified) | inactive
17 | COc1ccccc1N1CCN([C@H]2[C@@H]3OC[C@@H](O3)[C@@H](NC(=O)Nc3ccccc3)[C@@H]2O)CC1 | inconclusive: 19%
18 | CC(O)C(=O)NCc1ccc2[nH]c3c(c2c1)CCCCCC3 (stereo unspecified) | inconclusive: 12%
19 | Cc1nc2cc(-c3ccccc3)nn2c(C)c1CCC(=O)N1CCCC1 | inactive
20 | CCOC(=O)c1c(NC(=O)c2ccoc2C)sc2c1CCCC2 | inconclusive: 18%
21 | CC(C)(C)c1cc(CC2(NCc3ccc(CO)o3)COC2)no1 | inactive
22 | O=C(CN1CCOCC1)Nc1cc(C(F)(F)F)ccc1Cl | inconclusive: 15%
23 | Cc1nnc(SCCNC(=O)CC2CCc3ccccc32)s1 (stereo unspecified) | inconclusive: 13%
24 | COc1cc2ccccc2cc1C(=O)Oc1cccc2cccnc12 | inactive

Entries shown so far that have two or more sulfur atoms (two):
Row | Compound | inhibition
8 | Cc1ccc(C)c(NC(=O)CSc2nc3c(c(=O)n2-c2ccccc2)SCC3)c1 | inconclusive: 11%
23 | Cc1nnc(SCCNC(=O)CC2CCc3ccccc32)s1 (stereo unspecified) | inconclusive: 13%

Filtered by structure: the entries above with fluorine
Row | Compound | inhibition
6 | CCc1ncc(CN2CCC(C(=O)Nc3cccc(-c4cccc(F)c4)c3)CC2)cn1 | inactive
16 | CC(Oc1ccccc1)C(=O)N(c1ccc(F)cc1)C1C=CS(=O)(=O)C1 (stereo unspecified) | inactive
22 | O=C(CN1CCOCC1)Nc1cc(C(F)(F)F)ccc1Cl | inconclusive: 15%

(listing goes on)

Row | Compound | inhibition
25 | COc1ccc2nc([C@H]3CCN(C4CCOCC4)C3)[nH]c2c1 | inactive
26 | COc1cccc(C2Nc3ccccc3NC3=C2C(=O)CC(c2cccs2)C3)c1O (stereo unspecified) | inconclusive: 24%
27 | CC(C)CCNC(=O)c1cc(-c2cccs2)nc2ccccc12 | inconclusive: 12%
28 | COC(=O)CNC(=O)Cn1cnc2sc3c(c2c1=O)CCCC3 | inconclusive: 16%
29 | O=C(NCCc1ccccc1Cl)C1CCN(S(=O)(=O)c2cccs2)CC1 | inconclusive: 11%
30 | Cn1cnnc1C1CCCN(Cc2cc3n(n2)CCCNC3)C1 (stereo unspecified) | inactive
31 | CCN(Cc1ccccc1)C(=O)CNS(=O)(=O)c1ccc(Br)s1 | inactive
32 | O=S(=O)(Nc1ccccc1Cl)c1cccnc1 | inactive
33 | Cc1ccccc1[C@H]1[C@@H](C(=O)N(C)Cc2cnccn2)C[C@@](C)(C(=O)O)N1C | inconclusive: 11%
34 | CC1CCN(C(=O)c2cc3c(=O)n4ccccc4nc3n2C)CC1 | inconclusive: 20%
35 | CCOc1ccc(N2C(=O)[C@H]3C4c5ccccc5C([N+](=O)[O-])(c5ccccc54)[C@H]3C2=O)cc1 | inactive
36 | COc1ccc2cc([C@H](C)C(=O)Nc3cnc4n3CCCC4)ccc2c1 | inconclusive: 16%
37 | Cc1csc2ncc(C(=O)Nc3ccccc3Cl)c(=O)n12 | inconclusive: 12%
38 | Cc1cnc(NCCc2nn[nH]n2)nc1N(C)C | inactive
39 | CCc1nc(CN2CCC(CCC(=O)N3CCN(c4ccccc4)CC3)CC2)c(C)[nH]1 | inconclusive: 19%
40 | c1ccc(-n2ncc3c(NC4CCCCCC4)ncnc32)cc1 | inconclusive: 12%
41 | Cc1ccc(OCc2occc2C(=O)N2CCCC(N3CCCC3=O)C2)cc1 (stereo unspecified) | inconclusive: 19%
42 | COc1ccccc1CNC(=O)c1ccc(N(Cc2ccccc2Cl)S(C)(=O)=O)cc1 | inactive
43 | CCC1C(=O)C(C)(C)C(=O)OC1c1ccccc1F (stereo unspecified) | inconclusive: 21%
44 | C=CCC(=O)N1CCC2(CCCN(CCc3ccccc3)C2)C1 (stereo unspecified) | inactive
45 | CC(C)c1ccc(C(=O)CSc2ncn[nH]2)cc1 | active: 30%
46 | COc1cc(C=O)ccc1OCCOc1c(C)cc(C)cc1Br | inactive
47 | COc1ccc(C(CC(=O)N(C)Cc2ccncn2)c2ccccc2)cc1 (stereo unspecified) | inactive
48 | O=C1CCC(C(=O)N2CCC(c3ccncc3)CC2)CN1CC1CCCCC1 (stereo unspecified) | inactive

Row | Compound | inhibition
49 | CN(C/C=C/c1ccccc1)C(=O)c1cc(Cn2ccc3ccccc32)[nH]n1 | inconclusive: 16%
50 | O=C(CN1CCN(c2nccc(N3CCC(O)C3)n2)CC1)Nc1ccccc1 (stereo unspecified) | inconclusive: 10%
51 | COC(=O)C1=C(NC(=O)c2ccc(Br)cc2)CCS1 | inconclusive: 21%
52 | Fc1ccc(-c2noc([C@@H]3CCCN3C3CCC3)n2)nc1 | inconclusive: 11%
53 | O=c1c(O[C@@H]2O[C@H](CO)[C@@H](O)[C@H](O)[C@H]2O)c(-c2ccc(O)c(O)c2)oc2cc(O)cc(O)c12 | inconclusive: 23%
54 | Cc1cc(C(=O)N2CCC(n3cc(-c4ccccn4)nn3)CC2)c(C)o1 | inactive
55 | COc1ccccc1C(=O)N1CCN=C1SCc1ccc(Br)cc1 | inactive
56 | CCS(=O)(=O)C(=C1Nc2ccccc2N1)S(=O)(=O)CC | inconclusive: 11%
57 | CN1CC2(CCCN(CCCCOc3ccccc3)C2)OC1=O (stereo unspecified) | inconclusive: 12%
58 | CN(C)C(=O)CCc1cc(C(C)(C)C)c(O)c(C(C)(C)C)c1 | inconclusive: 11%
59 | OC1CCCN(Cc2cccc(F)c2)C1 (stereo unspecified) | inactive
60 | Cc1ccccc1C(=O)Nc1ccc(-c2ccc([N+](=O)[O-])cc2)cc1 | inconclusive: 17%
61 | Cc1ccc([N+](=O)[O-])cc1N=Cc1nc(-c2ccc(Br)cc2)oc1O | inconclusive: 14%
62 | CCN(CC)CCNC(=O)CSc1cc(=O)n(C)c2cc(Cl)ccc12 | inactive
63 | CN(C)CCN1C(=O)C2C(c3ccccc3)C=CC(c3ccccc3)C2C1=O (stereo unspecified) | inactive
64 | Cc1cccc(-c2nc3cc(NC(=O)c4ccco4)ccc3o2)c1 | inconclusive: 13%
65 | Cc1c(Cl)cccc1NC(=O)C(NS(=O)(=O)c1cccs1)c1ccccc1 (stereo unspecified) | inconclusive: 12%
66 | CCc1ccccc1C(=O)N1CC[C@H](O)[C@@H](O)C1 | inconclusive: 13%
67 | CCn1c(C2CCN(S(=O)(=O)N3CCCC3)CC2)n[nH]c1=O | inactive
68 | CC1(C)COCN1S(=O)(=O)c1ccc(C(=O)Nc2nnc(-c3ccc(Cl)s3)o2)cc1 | inconclusive: 15%
69 | COC(=O)c1cc2n(n1)CCN(C(=O)c1ccc(-c3ncc[nH]3)s1)C2 | inconclusive: 16%
70 | O=C(CC(c1ccccc1)c1ccco1)N1CCCn2cncc2C1 (stereo unspecified) | inactive
71 | CCOC(=O)c1ccc(Nc2ncnc3nc[nH]c23)cc1 | active: 30%
72 | COc1ccc2c(=O)c(-c3csc(C)n3)coc2c1C | inactive

Row | Compound | inhibition
73 | O=C(Nc1ccccc1[N+](=O)[O-])c1cccc(S(=O)(=O)N2CCCCC2)c1 | active: 43%
74 | COc1ccc(C(=O)NCCNc2ccc([N+](=O)[O-])cc2)cc1Cl | inactive
75 | O=C(NCC1CCCN(Cc2ccncc2)C1)C1(C(F)(F)F)CC1 (stereo unspecified) | inconclusive: 10%
76 | O=c1ccc(-c2ccccc2)nn1CCn1ccnc1C1CC1 | inconclusive: 10%
77 | COc1ccccc1NC(=O)c1ccc(=O)n(Cc2ccc(F)cc2)c1 | inconclusive: 10%
78 | O=C(NCC1Cc2cc(F)cc(-c3ccccn3)c2O1)c1cc(F)ccc1F (stereo unspecified) | inconclusive: 16%
79 | O=C(O)CCCN=C1NS(=O)(=O)c2ccccc21 | inactive
80 | CCOc1ccccc1C1CC(c2ccc(Cl)cc2)Nc2nc(N)nn21 (stereo unspecified) | inconclusive: 15%
81 | Cc1nonc1C(=O)N1CCCC(C(=O)c2ccc(Oc3ccccc3)cc2)C1 (stereo unspecified) | inconclusive: 13%
82 | Cc1ccc(NC(=O)COc2ccc(Cl)cc2)c([N+](=O)[O-])c1 | inactive
83 | Cc1ccc(-n2ncc3c(Nc4c(C)n(C)n(-c5ccccc5)c4=O)ncnc32)c(C)c1 | inconclusive: 13%
84 | O=C(NCc1ccccc1)c1ccccc1-c1nc2ccccc2[nH]1 | inactive
85 | COc1ccccc1N1CCN([C@@H]2[C@H](O)[C@H](CO)O[C@@H]2CNC(=O)Nc2ccc(F)cc2F)CC1 | inconclusive: 17%
86 | COc1ccccc1NC(=O)CC1Nc2ccccc2NC1=O (stereo unspecified) | inconclusive: 16%
87 | CN(Cc1ccccc1)C(=O)c1nn(C)c2c1CC(NCc1ccc(OC(F)(F)F)cc1)CC2 (stereo unspecified) | inconclusive: 15%
88 | COc1ccc(S(=O)(=O)N(CC(=O)Nc2ccc3c(c2)OCCO3)c2ccccc2)cc1 | inactive
89 | CC1=C[C@@H](CO)[C@H](C(C)C)C[C@H]1Cc1nnc(-c2ccncc2)o1 | inconclusive: 18%
90 | Cc1nccn1-c1ccc(NC(=O)C2CCCN(Cc3cccn3-c3ncccn3)C2)cc1 (stereo unspecified) | inconclusive: 10%
91 | COC(=O)CSc1nnc2c3c4c(sc3nc(C)n12)CCCC4 | inconclusive: 15%
92 | CN(C)C(=O)c1ccc2c(c1)N(CC(=O)N1CCN(c3ccccn3)CC1)C(=O)C1CCCCN21 (stereo unspecified) | inactive
93 | CC(=O)c1ccccc1-c1ccc2c(c1)CC(CNC(=O)c1cccc(-n3cccn3)c1)O2 (stereo unspecified) | inactive
94 | COc1ccc(Cl)cc1Nc1ncnc(N)c1[N+](=O)[O-] | inconclusive: 10%
95 | CCN(c1ccccc1)S(=O)(=O)c1ccc2c(c1)CCN2C(=O)C1CC1 | inactive
96 | COC(=O)[C@@H]1C[C@@H](N(C)C)CN1C(=O)c1cc(C(C)C)oc1C | inconclusive: 21%
